Results: paper PMC8602821
These are yes or no findings as the source states them, for the method shown. Binding seen in cells or lysates may run through a third protein. Some entries that bind do so weakly or less than the wild type. Sequences can lack the tags named with a protein.

T1: GST-fused CEBP-2 (C. elegans) (UniProt Q8IG69)
T1 sequence: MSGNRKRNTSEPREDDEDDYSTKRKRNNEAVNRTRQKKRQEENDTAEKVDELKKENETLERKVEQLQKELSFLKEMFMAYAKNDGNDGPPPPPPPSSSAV

T2: ZIP-11-GFP (C. elegans) (UniProt Q9N5A8)
T2 sequence: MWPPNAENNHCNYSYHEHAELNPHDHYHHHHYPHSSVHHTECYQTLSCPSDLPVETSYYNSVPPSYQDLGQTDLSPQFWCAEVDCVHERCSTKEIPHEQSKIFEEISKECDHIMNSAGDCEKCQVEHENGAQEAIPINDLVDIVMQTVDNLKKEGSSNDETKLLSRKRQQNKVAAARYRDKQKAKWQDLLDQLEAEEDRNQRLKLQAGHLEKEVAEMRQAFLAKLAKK


Assays:
[1] = molecular target: T1, GST-fused CEBP-2 (C. elegans); test: pull-down; GST-fused CEBP-2 (or GST) from bacterial extract added to lysate of HEK293T cells transfected with ZIP-11-GFP; GST-beads overnight at 4°C; working buffer 50 mM HEPES pH 7.4, 100 mM NaCl, 50 mM KCl with Triton X-100; blot with anti-GFP and anti-GST
ZIP-11-GFP (C. elegans) = molecular target: T2, ZIP-11-GFP (C. elegans); test: co-IP; ZIP-11-GFP and CEBP-2-Flag co-expressed in 293T cells; lysate in IPB (50 mM HEPES pH 7.7, 100 mM NaCl, 50 mM KCl, 2 mM MgCl2, 2 mM CaCl2, 1 mM EDTA) with Triton X-100; anti-GFP-Trap-A beads overnight at 4°C; blot with anti-Flag

binding [1] | binding (ZIP-11-GFP (C. elegans)) | Binder
binds | – | ZIP-11-GFP (protein, UniProt Q9N5A8 1-228) MWPPNAENNHCNYSYHEHAELNPHDHYHHHHYPHSSVHHTECYQTLSCPSDLPVETSYYNSVPPSYQDLGQTDLSPQFWCAEVDCVHERCSTKEIPHEQSKIFEEISKECDHIMNSAGDCEKCQVEHENGAQEAIPINDLVDIVMQTVDNLKKEGSSNDETKLLSRKRQQNKVAAARYRDKQKAKWQDLLDQLEAEEDRNQRLKLQAGHLEKEVAEMRQAFLAKLAKK
– | binds | CEBP-2-Flag (protein, UniProt Q8IG69 1-100) MSGNRKRNTSEPREDDEDDYSTKRKRNNEAVNRTRQKKRQEENDTAEKVDELKKENETLERKVEQLQKELSFLKEMFMAYAKNDGNDGPPPPPPPSSSAV
